# Source: patent publication US5157019A, “Serine protease inhibitors” (Monsanto Company, priority 1991, dated 1992)
# At least one peptide structure holds a part that was inferred or is arguable (an end, a ring closure or a residue). Ends that are not written are not given here.
# Legend:
# [1] = system: classical pathway of complement activation; assay: Hemolytic assay, classical pathway (lysis of EA cells by normal human serum); format: cell-based; details: 100 μM peptide
# [2] = system: alternative pathway of complement activation; assay: Hemolytic assay, alternative pathway (lysis of ER cells by normal human serum); format: cell-based; details: 100 μM peptide
sequence,measurement,setting,value
RPPGFSPFRVTFKANRPFLVFI [Peptide 17],"% inhibition, classical pathway (CP)",[1],98%
same,"% inhibition, alternative pathway (AP)",[2],53%
